Assay results published in paper PMC5572458.
These are yes or no findings as the source states them, for the method shown. In cells and extracts the contact can be indirect. Some binding calls cover weakened binding; strength is not graded here.

Biological target: T1, Chromodomain Y-like (CDYL) protein (human (endogenous in SH-SY5Y)) (UniProt Q9Y232)
T1 sequence: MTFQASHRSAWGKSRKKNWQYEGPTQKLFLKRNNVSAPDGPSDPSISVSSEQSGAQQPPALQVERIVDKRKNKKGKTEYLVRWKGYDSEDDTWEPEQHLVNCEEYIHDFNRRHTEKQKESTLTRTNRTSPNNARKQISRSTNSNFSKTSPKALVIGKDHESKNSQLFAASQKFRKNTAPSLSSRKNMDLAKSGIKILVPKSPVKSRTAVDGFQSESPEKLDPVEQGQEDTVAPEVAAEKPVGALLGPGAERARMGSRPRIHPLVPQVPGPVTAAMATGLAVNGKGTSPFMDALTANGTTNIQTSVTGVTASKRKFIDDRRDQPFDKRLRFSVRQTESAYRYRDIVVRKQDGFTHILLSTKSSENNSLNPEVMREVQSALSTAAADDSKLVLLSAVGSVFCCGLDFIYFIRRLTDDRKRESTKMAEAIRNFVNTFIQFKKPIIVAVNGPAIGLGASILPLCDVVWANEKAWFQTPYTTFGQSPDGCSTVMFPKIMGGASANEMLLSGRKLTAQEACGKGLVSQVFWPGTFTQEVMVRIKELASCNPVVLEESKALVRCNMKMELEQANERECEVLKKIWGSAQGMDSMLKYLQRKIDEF
Experiment: co-IP; SH-SY5Y whole cell lysate (50 mM Tris-HCl pH 7.4, 150 mM NaCl, 1 mM EDTA, 0.3% NP-40), 2 ug anti-CDYL antibody 12 h at 4 C, protein A agarose beads, five washes with lysis buffer, western blot

binding: binds
B1: REST (protein, UniProt Q13127 1-1097)
chain: MATQVMGQSSGGGGLFTSSGNIGMALPNDMYDLHDLSKAELAAPQLIMLANVALTGEVNGSCCDYLVGEERQMAELMPVGDNNFSDSEEGEGLEESADIKGEPHGLENMELRSLELSVVEPQPVFEASGAPDIYSSNKDLPPETPGAEDKGKSSKTKPFRCKPCQYEAESEEQFVHHIRVHSAKKFFVEESAEKQAKARESGSSTAEEGDFSKGPIRCDRCGYNTNRYDHYTAHLKHHTRAGDNERVYKCIICTYTTVSEYHWRKHLRNHFPRKVYTCGKCNYFSDRKNNYVQHVRTHTGERPYKCELCPYSSSQKTHLTRHMRTHSGEKPFKCDQCSYVASNQHEVTRHARQVHNGPKPLNCPHCDYKTADRSNFKKHVELHVNPRQFNCPVCDYAASKKCNLQYHFKSKHPTCPNKTMDVSKVKLKKTKKREADLPDNITNEKTEIEQTKIKGDVAGKKNEKSVKAEKRDVSKEKKPSNNVSVIQVTTRTRKSVTEVKEMDVHTGSNSEKFSKTKKSKRKLEVDSHSLHGPVNDEESSTKKKKKVESKSKNNSQEVPKGDSKVEENKKQNTCMKKSTKKKTLKNKSSKKSSKPPQKEPVEKGSAQMDPPQMGPAPTEAVQKGPVQVEPPPPMEHAQMEGAQIRPAPDEPVQMEVVQEGPAQKELLPPVEPAQMVGAQIVLAHMELPPPMETAQTEVAQMGPAPMEPAQMEVAQVESAPMQVVQKEPVQMELSPPMEVVQKEPVQIELSPPMEVVQKEPVKIELSPPIEVVQKEPVQMELSPPMGVVQKEPAQREPPPPREPPLHMEPISKKPPLRKDKKEKSNMQSERARKEQVLIEVGLVPVKDSWLLKESVSTEDLSPPSPPLPKENLREEASGDQKLLNTGEGNKEAPLQKVGAEEADESLPGLAANINESTHISSSGQNLNTPEGETLNGKHQTDSIVCEMKMDTDQNTRENLTGINSTVEEPVSPMLPPSAVEEREAVSKTALASPPATMAANESQEIDEDEGIHSHEGSDLSDNMSEGSDDSGLHGARPVPQESSRKNAKEALAVKAAKGDFVCIFCDRSFRKGKDYSKHLNRHLVNVYYLEEAAQGQE
